# PubChem BioAssay AID272 (DTP/NCI, 2004)
# The list shows only some results of the screen, not a fair sample: it gathers tests that were run many times, whatever their T/C, doses with no T/C, and many T/C values between a quarter and a half above the control. Other doses and runs of a compound stand elsewhere. T/C: endpoint of the treated group in % of that of the vehicle group. Schedules are NCI's codes, taken here to give the interval after Q, in days (D) or hours (H), and the number of doses after X. Some T/C values carry the count of animals alive at the toxicity check (mostly the fifth day); without a count, all were alive then. Some entries give survivors of the animals treated and no T/C: the source holds a T/C of zero for them, seemingly a mark for toxic or unscored doses. Some doses without a T/C left all or most animals alive at the check, yet need not have been tolerated: survival well below the control is almost never listed, so the zero probably covers shortened survival too. Counts of survivors are from the toxicity check (mostly the fifth day) where no day follows; animals may have died later. Some entries were tested several times; their values stand side by side, smallest first. Additions like (4×) stand for listed records that agree. Where survival is the endpoint, this PubChem deposit counts one and a half times the control or more as active, and values a quarter to a half above the control carry no call in these data; other NCI protocols may use other cut-offs.
# Tested on: Lewis lung carcinoma i.m., BDF1 mice, T/C %
# Assay: NCI In Vivo Anticancer Drug Screen. Data for tumor model Lewis Lung Carcinoma (intramuscular) in B6D2F1 (BDF1) mice
# In short: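 Tumour-bearing mice were dosed with compound, and either their survival or their tumour size was measured. Results were expressed relative to vehicle-treated controls as T/C.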
smiles,measurement,setting,value
CN(Cc1cnc2nc(N)nc(N)c2n1)c1ccc(C(=O)N[C@@H](CCC(=O)O)C(=O)O)cc1,T/C,"T/C endpoint: mean tumor weight, dose: 0.62 mg/kg/injection, schedule: Q01DX011 (ip), vehicle: other, evaluated on day 12, higher T/C = larger tumour",148 % of control
same,T/C,"T/C endpoint: mean tumor weight, dose: 1.25 mg/kg/injection, schedule: Q01DX011 (ip), vehicle: other, evaluated on day 12, higher T/C = larger tumour",135 % of control [6 of 8 alive]
same,survivor count,"T/C endpoint: mean tumor weight, dose: 2.5 mg/kg/injection, schedule: Q01DX011 (ip), vehicle: other, higher T/C = larger tumour",1 of 8 and 5 of 8
same,T/C,"T/C endpoint: median survival time, dose: 0.12 mg/kg/injection, schedule: Q01DX011 (ip), vehicle: sodium bicarbonate, higher T/C = longer survival",131 % of control
same,T/C,"T/C endpoint: median survival time, dose: 0.31 mg/kg/injection, schedule: Q01DX011 (ip), vehicle: other, evaluated on day 39, higher T/C = longer survival",110 % of control [7 of 8 alive]
same,T/C,"T/C endpoint: median survival time, dose: 0.31 mg/kg/injection, schedule: Q01DX011 (ip), vehicle: other, evaluated on day 40, higher T/C = longer survival",115 % of control [7 of 8 alive]
same,T/C,"T/C endpoint: median survival time, dose: 0.31 mg/kg/injection, schedule: Q01DX011 (ip), vehicle: other, evaluated on day 49, higher T/C = longer survival",98 % of control
same,T/C,"T/C endpoint: median survival time, dose: 0.31 mg/kg/injection, schedule: Q01DX011 (ip), vehicle: other, evaluated on day 50, higher T/C = longer survival",110 % of control
same,survivor count,"T/C endpoint: median survival time, dose: 0.39 mg/kg/injection, schedule: Q01DX009 (ip), vehicle: sodium bicarbonate, higher T/C = longer survival",0 of 8
same,T/C,"T/C endpoint: median survival time, dose: 0.62 mg/kg/injection, schedule: Q01DX011 (ip), vehicle: other, evaluated on day 39, higher T/C = longer survival",104 % of control [7 of 8 alive]
same,T/C,"T/C endpoint: median survival time, dose: 0.62 mg/kg/injection, schedule: Q01DX011 (ip), vehicle: other, evaluated on day 40, higher T/C = longer survival",117 % of control
same,T/C,"T/C endpoint: median survival time, dose: 0.62 mg/kg/injection, schedule: Q01DX011 (ip), vehicle: other, evaluated on day 49, higher T/C = longer survival",115 % of control
same,T/C,"T/C endpoint: median survival time, dose: 0.62 mg/kg/injection, schedule: Q01DX011 (ip), vehicle: other, evaluated on day 50, higher T/C = longer survival",108 % of control
same,T/C,"T/C endpoint: median survival time, dose: 0.65 mg/kg/injection, schedule: Q01DX009 (ip), vehicle: sodium bicarbonate, evaluated on day 10, higher T/C = longer survival",89 % of control
same,T/C,"T/C endpoint: median survival time, dose: 0.65 mg/kg/injection, schedule: Q01DX009 (ip), vehicle: sodium bicarbonate, evaluated on day 12, higher T/C = longer survival",88 % of control
same,T/C,"T/C endpoint: median survival time, dose: 0.65 mg/kg/injection, schedule: Q01DX009 (ip), vehicle: sodium bicarbonate, evaluated on day 41, higher T/C = longer survival",90 % of control
same,T/C,"T/C endpoint: median survival time, dose: 0.65 mg/kg/injection, schedule: Q01DX009 (ip), vehicle: sodium bicarbonate, evaluated on day 45, higher T/C = longer survival",90 % of control
same,survivor count,"T/C endpoint: median survival time, dose: 1.0 mg/kg/injection, schedule: Q01DX011 (ip), vehicle: sodium bicarbonate, higher T/C = longer survival",9 of 10
same,T/C,"T/C endpoint: median survival time, dose: 1.08 mg/kg/injection, schedule: Q01DX009 (ip), vehicle: sodium bicarbonate, evaluated on day 10, higher T/C = longer survival",98 % of control
same,T/C,"T/C endpoint: median survival time, dose: 1.08 mg/kg/injection, schedule: Q01DX009 (ip), vehicle: sodium bicarbonate, evaluated on day 12, higher T/C = longer survival",92 % of control
same,T/C,"T/C endpoint: median survival time, dose: 1.08 mg/kg/injection, schedule: Q01DX009 (ip), vehicle: sodium bicarbonate, evaluated on day 41, higher T/C = longer survival",95 % of control
same,T/C,"T/C endpoint: median survival time, dose: 1.08 mg/kg/injection, schedule: Q01DX009 (ip), vehicle: sodium bicarbonate, evaluated on day 45, higher T/C = longer survival",92 % of control [7 of 8 alive]
same,T/C,"T/C endpoint: median survival time, dose: 1.25 mg/kg/injection, schedule: Q01DX011 (ip), vehicle: other, evaluated on day 40, higher T/C = longer survival",133 % of control [6 of 8 alive]
same,T/C,"T/C endpoint: median survival time, dose: 1.25 mg/kg/injection, schedule: Q01DX011 (ip), vehicle: other, evaluated on day 49, higher T/C = longer survival",98 % of control [7 of 8 alive]
same,T/C,"T/C endpoint: median survival time, dose: 1.25 mg/kg/injection, schedule: Q01DX011 (ip), vehicle: other, evaluated on day 50, higher T/C = longer survival",92 % of control
same,survivor count,"T/C endpoint: median survival time, dose: 1.25 mg/kg/injection, schedule: Q01DX011 (ip), vehicle: other, higher T/C = longer survival",6 of 8
same,T/C,"T/C endpoint: median survival time, dose: 1.8 mg/kg/injection, schedule: Q01DX009 (ip), vehicle: sodium bicarbonate, evaluated on day 10, higher T/C = longer survival",50 % of control
same,T/C,"T/C endpoint: median survival time, dose: 1.8 mg/kg/injection, schedule: Q01DX009 (ip), vehicle: sodium bicarbonate, evaluated on day 12, higher T/C = longer survival",65 % of control
same,survivor count,"T/C endpoint: median survival time, dose: 1.8 mg/kg/injection, schedule: Q01DX009 (ip), vehicle: sodium bicarbonate, higher T/C = longer survival",6 of 8 and 7 of 8
same,survivor count,"T/C endpoint: median survival time, dose: 2.0 mg/kg/injection, schedule: Q01DX011 (ip), vehicle: sodium bicarbonate, higher T/C = longer survival",10 of 10
same,survivor count,"T/C endpoint: median survival time, dose: 2.5 mg/kg/injection, schedule: Q01DX011 (ip), vehicle: other, higher T/C = longer survival","1 of 8, 5 of 8, 6 of 8 (2×)"
same,survivor count,"T/C endpoint: median survival time, dose: 3.0 mg/kg/injection, schedule: Q01DX009 (ip), vehicle: sodium bicarbonate, higher T/C = longer survival",0 of 8
same,survivor count,"T/C endpoint: median survival time, dose: 4.0 mg/kg/injection, schedule: Q01DX011 (ip), vehicle: sodium bicarbonate, higher T/C = longer survival",4 of 10 and 9 of 10
same,survivor count,"T/C endpoint: median survival time, dose: 5.0 mg/kg/injection, schedule: Q01DX011 (ip), vehicle: other, higher T/C = longer survival",0 of 8 (3×)
COC(=O)Nc1nc2ccc(C3(c4ccc(F)cc4)OCCO3)cc2[nH]1,survivor count,"T/C endpoint: median survival time, dose: 10.0 mg/kg/injection, schedule: Q01DX011 (oral), vehicle: other, higher T/C = longer survival",8 of 8
same,survivor count,"T/C endpoint: median survival time, dose: 80.0 mg/kg/injection, schedule: Q01DX011 (oral), vehicle: other, higher T/C = longer survival",8 of 8
CNC(=S)N/N=C/C(C)=N/NC(=S)NC,survivor count,"T/C endpoint: median survival time, dose: 0.1 micrograms/kg/injection, schedule: Q01DX011 (ip), vehicle: saline with Tween-80, higher T/C = longer survival",1 of 8
